Results deposited as PubChem BioAssay AID504808 (Drosophila RNAi Screening Center, 2011)
In all, the deposit lists about 21,000 reagents; shown is a random part of those that have a named target and a result. In the full data, 18 (0.084%) got an active call. 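Raw counts without plate normalisation, one of two replicates; the ratio scores behind the calls were not deposited.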 The numbers tell different reagents against one gene apart. A plus sign joins genes that one reagent is predicted to hit. Not given: the amount of reagent, the time to read-out.

Test: 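Fly genes required to hold E2F transcription in check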 (primary screen)
Cells: Drosophila S2 cells
Reagent: long dsRNA against Drosophila genes
Read-out: 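Firefly luciferase driven by E2F sites, normalised to Renilla luciferase on the same minimal promoter, measured by plate reader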
Reading the numbers: E2F firefly: higher = more E2F reporter activity; Renilla normaliser: higher = more normaliser reporter signal
Rule for the call: 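a knock-down counted as active when the firefly/Renilla E2F signal rose above 50%, a threshold chosen arbitrarily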

nsr (novel spermatogenesis regulator) — E2F firefly, rep 1: 82318; Renilla normaliser, rep 1: 3361; call: inactive
bnl (branchless) #1 — E2F firefly, rep 1: 81322; Renilla normaliser, rep 1: 2469; call: inactive
bnl (branchless) #2 — E2F firefly, rep 1: 61761; Renilla normaliser, rep 1: 3148; call: inactive
cl (clot) — E2F firefly, rep 1: 87244; Renilla normaliser, rep 1: 3416; call: inactive
AhcyL2 (Adenosylhomocysteinase like 2) — E2F firefly, rep 1: 1.07e5; Renilla normaliser, rep 1: 6086; call: inactive
CG10026 — E2F firefly, rep 1: 96767; Renilla normaliser, rep 1: 3923; call: inactive
COX6AL2 + Ir75d — E2F firefly, rep 1: 1.26e5; Renilla normaliser, rep 1: 5287; call: inactive
HisRS (Histidyl-tRNA synthetase) — E2F firefly, rep 1: 1.44e5; Renilla normaliser, rep 1: 5519; call: inactive
Tip60 (Tat interactive protein 60kDa) — E2F firefly, rep 1: 2105; Renilla normaliser, rep 1: 896; call: inactive
CG11436 — E2F firefly, rep 1: 1653; Renilla normaliser, rep 1: 844; call: inactive
CG34309 — E2F firefly, rep 1: 1.25e5; Renilla normaliser, rep 1: 5705; call: inactive
anchor — E2F firefly, rep 1: 78484; Renilla normaliser, rep 1: 3764; call: inactive
Pgd (Phosphogluconate dehydrogenase) — E2F firefly, rep 1: 1594; Renilla normaliser, rep 1: 996; call: inactive
Cyp309a1 (Cytochrome P450 309a1) — E2F firefly, rep 1: 1.67e5; Renilla normaliser, rep 1: 5544; call: inactive
RpS15Ab + RpS15Aa #1 — E2F firefly, rep 1: 91829; Renilla normaliser, rep 1: 5055; call: inactive
RpS15Ab + RpS15Aa #2 — E2F firefly, rep 1: 60384; Renilla normaliser, rep 1: 5740; call: inactive
tbrd-2 — E2F firefly, rep 1: 1.24e5; Renilla normaliser, rep 1: 4706; call: inactive
MME1 (Mitochondrial Magnesium Exporter 1) — E2F firefly, rep 1: 1.01e5; Renilla normaliser, rep 1: 3727; call: inactive
CG4480 — E2F firefly, rep 1: 1.05e5; Renilla normaliser, rep 1: 4231; call: inactive
Nup50 (Nucleoporin 50kD) — E2F firefly, rep 1: 2623; Renilla normaliser, rep 1: 219; call: inactive
CG31091 — E2F firefly, rep 1: 1.13e5; Renilla normaliser, rep 1: 5693; call: inactive
retn (retained) — E2F firefly, rep 1: 1.02e5; Renilla normaliser, rep 1: 4754; call: inactive
cold (coiled) — E2F firefly, rep 1: 1.03e5; Renilla normaliser, rep 1: 3751; call: inactive
yellow-d2 — E2F firefly, rep 1: 1.01e5; Renilla normaliser, rep 1: 4668; call: inactive
bel (belle) — E2F firefly, rep 1: 1.56e5; Renilla normaliser, rep 1: 7127; call: inactive
Whamy (WHAMM and JMY related) — E2F firefly, rep 1: 1.41e5; Renilla normaliser, rep 1: 6912; call: inactive
Uba3 (Ubiquitin-like activating enzyme 3) — E2F firefly, rep 1: 2574; Renilla normaliser, rep 1: 208; call: inactive
U3-55K (U3 small nuclear riboprotein factor 55K) — E2F firefly, rep 1: 1.03e5; Renilla normaliser, rep 1: 4450; call: inactive

Records listed so far whose gene name begins with C or c (9):
cl (clot) — E2F firefly, rep 1: 87244; Renilla normaliser, rep 1: 3416; call: inactive
CG10026 — E2F firefly, rep 1: 96767; Renilla normaliser, rep 1: 3923; call: inactive
COX6AL2 + Ir75d — E2F firefly, rep 1: 1.26e5; Renilla normaliser, rep 1: 5287; call: inactive
CG11436 — E2F firefly, rep 1: 1653; Renilla normaliser, rep 1: 844; call: inactive
CG34309 — E2F firefly, rep 1: 1.25e5; Renilla normaliser, rep 1: 5705; call: inactive
Cyp309a1 (Cytochrome P450 309a1) — E2F firefly, rep 1: 1.67e5; Renilla normaliser, rep 1: 5544; call: inactive
CG4480 — E2F firefly, rep 1: 1.05e5; Renilla normaliser, rep 1: 4231; call: inactive
CG31091 — E2F firefly, rep 1: 1.13e5; Renilla normaliser, rep 1: 5693; call: inactive
cold (coiled) — E2F firefly, rep 1: 1.03e5; Renilla normaliser, rep 1: 3751; call: inactive
